Measurements reported in PubChem BioAssay AID1224826 (NIAID, 2016).
Shown is an unselected part of about 17,000 deposited reagents. Over the whole deposit, about 1,110 (6.6%) were called active. 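Active means lowered or raised reporter signal; replicate intensities are raw and not normalised per plate.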 Entries without a mark were called inactive. The numbers tell different reagents against one gene apart. Not all columns of the deposit are shown.

- Purpose: 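Regulators of Tlr4 signalling leading to Tnf-alpha expression in macrophages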 (primary screen)
- Cell system: RAW264.7 G9 macrophages from mouse bearing reporters for p65 (GFP) and the Tnf promoter (mCherry)
- Reagent: siRNA pool against mouse genes, 100 nM
- Timing: 16 h of LPS stimulation, after 2 days of siRNA transfection
- Challenge: bacterial lipopolysaccharide (Salmonella minnesota R595), 10 ng/ml
- Read-out: 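Nuclear mCherry signal of the Tnf promoter reporter measured by imaging after background removal, scaled to each plate median and turned into robust z-scores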
- Reading the numbers: Tnf reporter robust z-score: higher = stronger Tnf promoter reporter signal after LPS; Tnf reporter intensity: higher = stronger Tnf promoter reporter signal
- Call rule: 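a well counts as active at a score of -1.3 or below (Tlr4 knock-down control median) or above 3 (raised signal); controls and wells holding fewer than 50 cells are excluded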
- Calls: active = Tnf reporter clearly lowered or raised; inactive = no clear change in Tnf reporter

The first 3 entries, to show the layout:
gene	pool no.	Tnf reporter robust z-score	fewer than 50 cells in well	Tnf reporter intensity, replicate 1
Atp6v1d	1	-0.61	enough cells in well	118
P4ha2	1		fewer than 50 cells per well; well left out of calls	68.2
Prpsap1	1	2.29	enough cells in well	397

Main list, from the start:
gene	pool no.	Tnf reporter robust z-score	fewer than 50 cells in well	Tnf reporter intensity, replicate 1
Atp6v1d	1	-0.61	enough cells in well	118
P4ha2	1		fewer than 50 cells per well; well left out of calls	68.2
Prpsap1	1	2.29	enough cells in well	397
Slc24a1	1	0.16	enough cells in well	88.2
Pawr	1	-1.21	enough cells in well	156
Pcdha7	1	-0.62	enough cells in well	125
Egln2	1	0.82	enough cells in well	236
Tfr2	1	-0.23	enough cells in well	190
Spaar	1	1.19	enough cells in well	272
Rint1	1	2.33	enough cells in well	304
Tcerg1	1	-0.04	enough cells in well	246
Lrrc8d	1	0.42	enough cells in well	225
Cherp	1	-0.55	enough cells in well	134
Mfap3l	1	-1.1	enough cells in well	117
Or5t9	1	-0.12	enough cells in well	180
Cdkn2c	1	0.92	enough cells in well	192
Eci1	1	-0.19	enough cells in well	199
9130230L23Rik	1	-0.54	enough cells in well	163
Map4	1	1.79	enough cells in well	276
Rack1	1	-0.5	enough cells in well	236
Hoxa5	1	0.51	enough cells in well	257
Csta2	1	0.87	enough cells in well	215
Coq4	1	-1.43 (active)	enough cells in well	23.5
Pi16	1	2.06	enough cells in well	336
Tmie	1	1.54	enough cells in well	200
Ror2	1	-0.86	enough cells in well	139
Uts2b	1		fewer than 50 cells per well; well left out of calls	98.5
1700092C17Rik	1	-0.88	enough cells in well	143
Sfxn1	1	2.78	enough cells in well	171
Cops7a	1	1	enough cells in well	258
Crppa	1		fewer than 50 cells per well; well left out of calls	167
Sord	1	-0.29	enough cells in well	227
Ncf4	1	-0.48	enough cells in well	135
St8sia5	1	0.31	enough cells in well	117
Bglap	1		fewer than 50 cells per well; well left out of calls	8.97
Serp1	1	-1.21	enough cells in well	95.1
Rnf182	1	-1.19	enough cells in well	123
Kat2a	1	-1.92 (active)	enough cells in well	89.3
Dnajc28	1	0.74	enough cells in well	128
Or4x13	1	1.46	enough cells in well	316
Or4x13	2	-0.37	enough cells in well	176
Dtx3	1	-0.84	enough cells in well	157
Yipf2	1	0.91	enough cells in well	375
Ncoa7	1	2.9	enough cells in well	353
Spcs1	1	-0.24	enough cells in well	199
Sppl2a	1		fewer than 50 cells per well; well left out of calls	185
Irx4	1	-0.1	enough cells in well	249
Gpt2	1	0.96	enough cells in well	333
Cmah	1	0.07	enough cells in well	191
Smarcd2	1	-0.09	enough cells in well	264
Ptrh2	1	-0.59	enough cells in well	120
Cox16	1		fewer than 50 cells per well; well left out of calls	57.2
Krt2	1	0.77	enough cells in well	251
Pla2g2e	1	-0.14	enough cells in well	191
Tspan13	1	-0.19	enough cells in well	119
Or5b3	1	1.33	enough cells in well	247
Rhebl1	1	0.85	enough cells in well	140
Vmn1r75	1		fewer than 50 cells per well; well left out of calls	54.7
Entr1	1	5.63 (active)	enough cells in well	331
Eif3g	1	-1.93 (active)	enough cells in well	74.9
Pcdhb17	1	-0.46	enough cells in well	127
Znrf1	1	-1.03	enough cells in well	124
Smad1	1	-0.55	enough cells in well	247
Or5b94	1	-0.41	enough cells in well	156
Magee1	1	-0.41	enough cells in well	151
Zfp341	1	-1.58 (active)	enough cells in well	46.1
Xrn2	1	-0.65	enough cells in well	83.8
Ralgapa1	1	-1.43 (active)	enough cells in well	123
Papss1	1	1.94	enough cells in well	329
Trpc1	1	-0.19	enough cells in well	233
Abtb1	1	2.24	enough cells in well	286
Eif3j1	1	-0.94	enough cells in well	133
Pkp1	1	-0.25	enough cells in well	242
Spred3	1	0.39	enough cells in well	217
L3hypdh	1	0.59	enough cells in well	296
